These results are taken from patent US20060003989A1, “Compositions and methods using acetylcholinesterase (ACE) inhibitors to treat central nervous system (CNS) disorders in mammals” (priority 2002, published 2006).

For data set [1] the following is noted: rat, single intranasal dose, at 30 min.
For data set [2], the system named is nasal mucosa. Particulars: rat.

For `COc1cc2c(cc1OC)C(=O)C(CC1CCN(Cc3ccccc3)CC1)C2` (stereo not drawn) [donepezil], the “peak CSF concentration” value in data set [1] was 28.4 nanogram/mL. In addition, the “signs of nasal irritation, pain or distress” value in data set [2] (intranasal 50 μL/kg of donepezil 50 mg/mL in α-cyclodextrin 12%, observed after dosing) was “No signs were noted of nasal irritation”. Further, the “otoscopic examination of the nasal cavity vs saline” value in data set [2] (intranasal donepezil 50 mg/mL in α-cyclodextrin 12%, 4 hours after dosing) is listed as “did not reveal any difference”.
